Experimental data: PubChem BioAssay AID504786 (Drosophila RNAi Screening Center, 2011)

Screen: 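Knock-downs reducing HIF reporter induction by the iron chelator DFO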 (primary screen)
Cell system: Drosophila S2 cells with a stable HIF luciferase reporter
Reagent: long dsRNA against Drosophila genes, about 0.2 µg dsRNA per well of a 384-well plate
Timing: three days of knock-down, then 20 h of DFO before reading
Treatment: desferrioxamine (DFO) at 100 µM, an iron chelator that mimics hypoxia, for 20 h
Measurement: 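Firefly luciferase driven by the mouse ldh-a hypoxia-response element, measured after 20 h of 100 µM DFO; z-scores per plate, higher means more signal lost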
Reading the numbers: z-score: higher = stronger loss of HIF reporter signal
In all, the deposit lists about 21,000 reagents; this is an unselected part of those with a known target gene and a result. 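Primary screen; positive scores mean lost reporter signal, so the sign may be inverted from the usual convention.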 Names joined by + are all predicted targets of the reagent.

The opening 2 records, to show the layout:
Target gene	DRSC id	z-score, replicate 1	z-score, replicate 2
CG42502 + CG10570	DRSC02071	-0.5	-0.5
Hsp60C (GeneID 33796)	DRSC03036	-0.4	-0.4

Main list, from the start:
Target gene	DRSC id	z-score, replicate 1	z-score, replicate 2
CG42502 + CG10570	DRSC02071	-0.5	-0.5
Hsp60C (GeneID 33796)	DRSC03036	-0.4	-0.4
CG11458 (GeneID 50110)	DRSC11666	-0.1	-0.2
CG11227 (GeneID 33071)	DRSC20476	-0.2	-0.5
CG14316 (GeneID 42163)	DRSC14795	-1.1	0
Sur (GeneID 34350)	DRSC03447	-0.1	-0.5
Panx (GeneID 37434)	DRSC04563	-0.2	-0.3
CG14564 (GeneID 40425)	DRSC11725	-0.3	-0.3
Sf3b1 (GeneID 33235)	DRSC00535	7.1	7.2
slp2 (GeneID 33608)	DRSC00836	-0.3	-0.2
Cngl (GeneID 32468)	DRSC20318	1.6	1.7
stl (GeneID 37619)	DRSC04396	-0.3	0
Mst84B (GeneID 40840)	DRSC12579	-0.2	-0.6
noi (GeneID 40678)	DRSC12383	3.3	3.2
CG33143 (GeneID 37583)	DRSC04151	-0.4	-0.7
CG33143 (GeneID 37583)	DRSC04454	-0.1	0
Usp8 (GeneID 42509)	DRSC15876	0	0.1
Lrp4 (GeneID 32552)	DRSC20118	-0.4	-0.5
scf (GeneID 38145)	DRSC08735	-0.2	-0.2
firl (GeneID 34627)	DRSC02428	-0.3	-0.4
CG7298 (GeneID 40210)	DRSC10802	-0.3	-0.5
baz (GeneID 32703)	DRSC20309	-0.5	-1
Pop5 (GeneID 39915)	DRSC10074	-0.1	0.2
Als2 (GeneID 40410)	DRSC11806	-0.3	-0.2
Pcp (GeneID 33985)	DRSC03395	-0.4	-0.7
Mal-A1 (GeneID 35824)	DRSC07461	-0.3	-0.7
up (GeneID 32314)	DRSC20382	0	0.2
CG15425 (GeneID 33630)	DRSC00440	-0.2	0.2
eIF4G2 (GeneID 42819)	DRSC14207	-0.1	-0.4
dysf (GeneID 43174)	DRSC14529	-0.3	-0.8
dysf (GeneID 43174)	DRSC14895	-0.4	-0.7
dysf (GeneID 43174)	DRSC14896	-0.2	-0.7
dysf (GeneID 43174)	DRSC14897	-0.9	-0.8
Schip1 (GeneID 34393)	DRSC02851	0	-0.3
